{"sequences": {"note": "The chains behind the UniProt entries cited, without tags or fusion partners. Where a name states a change or a piece, a line headed by the entry shows the natural chain unless it says otherwise. Residues count along the entry.", "UniProt Q8C0J2, residues 1-230": "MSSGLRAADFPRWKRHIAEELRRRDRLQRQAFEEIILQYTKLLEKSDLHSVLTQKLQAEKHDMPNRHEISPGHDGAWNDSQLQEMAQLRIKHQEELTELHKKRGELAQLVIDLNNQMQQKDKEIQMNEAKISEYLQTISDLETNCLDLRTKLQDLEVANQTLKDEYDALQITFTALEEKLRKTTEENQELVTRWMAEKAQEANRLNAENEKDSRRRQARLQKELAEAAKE", "UniProt O70133": "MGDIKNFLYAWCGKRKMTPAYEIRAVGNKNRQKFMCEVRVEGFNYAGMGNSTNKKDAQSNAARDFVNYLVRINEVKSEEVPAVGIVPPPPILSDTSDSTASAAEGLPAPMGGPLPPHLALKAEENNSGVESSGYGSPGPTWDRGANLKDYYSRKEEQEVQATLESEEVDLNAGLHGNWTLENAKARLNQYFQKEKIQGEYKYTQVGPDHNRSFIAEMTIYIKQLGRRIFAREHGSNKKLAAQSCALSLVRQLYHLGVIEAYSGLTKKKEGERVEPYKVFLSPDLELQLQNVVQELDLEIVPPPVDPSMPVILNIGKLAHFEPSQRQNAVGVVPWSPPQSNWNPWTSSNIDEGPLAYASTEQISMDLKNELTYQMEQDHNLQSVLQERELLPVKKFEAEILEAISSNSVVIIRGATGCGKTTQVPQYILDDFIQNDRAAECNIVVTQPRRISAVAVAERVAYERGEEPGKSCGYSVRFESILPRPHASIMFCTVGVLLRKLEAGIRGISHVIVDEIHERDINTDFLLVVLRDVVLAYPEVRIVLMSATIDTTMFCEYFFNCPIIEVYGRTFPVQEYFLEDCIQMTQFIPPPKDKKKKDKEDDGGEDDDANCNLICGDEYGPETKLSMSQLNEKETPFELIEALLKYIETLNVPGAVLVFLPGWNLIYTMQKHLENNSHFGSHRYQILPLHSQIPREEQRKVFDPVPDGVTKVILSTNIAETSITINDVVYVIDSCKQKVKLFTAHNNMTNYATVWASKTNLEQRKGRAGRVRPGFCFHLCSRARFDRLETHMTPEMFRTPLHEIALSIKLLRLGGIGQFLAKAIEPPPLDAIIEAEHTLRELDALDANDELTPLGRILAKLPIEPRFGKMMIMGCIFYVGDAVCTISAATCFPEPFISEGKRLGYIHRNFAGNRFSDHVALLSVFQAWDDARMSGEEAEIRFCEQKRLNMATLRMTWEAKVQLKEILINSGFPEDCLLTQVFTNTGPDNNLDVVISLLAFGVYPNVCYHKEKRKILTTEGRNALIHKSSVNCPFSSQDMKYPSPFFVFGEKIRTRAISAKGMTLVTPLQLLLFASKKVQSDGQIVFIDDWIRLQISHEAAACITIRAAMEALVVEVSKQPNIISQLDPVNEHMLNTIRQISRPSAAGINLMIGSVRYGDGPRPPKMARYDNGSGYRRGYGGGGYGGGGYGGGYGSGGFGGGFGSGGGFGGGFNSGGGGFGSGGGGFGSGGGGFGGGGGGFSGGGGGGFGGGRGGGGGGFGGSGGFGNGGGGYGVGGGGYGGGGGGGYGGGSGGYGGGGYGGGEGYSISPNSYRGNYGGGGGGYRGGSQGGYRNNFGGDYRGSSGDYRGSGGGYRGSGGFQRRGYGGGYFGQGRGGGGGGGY"}, "source": "paper PMC10294620", "molecules": {"B1": {"name": "CAPRIN1 (endogenous, BV2 cells) (protein, UniProt Q60865 1-707)", "chain": "MPSATSHSGSGSKSSGPPPPSGSSGSEAAAGAAAPASQHPATGTGAVQTEAMKQILGVIDKKLRNLEKKKGKLDDYQERMNKGERLNQDQLDAVSKYQEVTNNLEFAKELQRSFMALSQDIQKTIKKTARREQLMREEAEQKRLKTVLELQYVLDKLGDDDVRTDLKQGLSGVPILSEEELSLLDEFYKLVDPERDMSLRLNEQYEHASIHLWDLLEGKEKPVCGTTYKALKEIVERVFQSNYFDSTHNHQNGLCEEEEAASAPTVEDQVAEAEPEPAEEYTEQSEVESTEYVNRQFMAETQFSSGEKEQVDEWTVETVEVVNSLQQQPQAASPSVPEPHSLTPVAQSDPLVRRQRVQDLMAQMQGPYNFIQDSMLDFENQTLDPAIVSAQPMNPTQNMDMPQLVCPQVHSESRLAQSNQVPVQPEATQVPLVSSTSEGYTASQPLYQPSHATEQRPQKEPMDQIQATISLNTDQTTASSSLPAASQPQVFQAGTSKPLHSSGINVNAAPFQSMQTVFNMNAPVPPANEPETLKQQSQYQATYNQSFSSQPHQVEQTELQQDQLQTVVGTYHGSQDQPHQVPGNHQQPPQQNTGFPRSSQPYYNSRGVSRGGSRGARGLMNGYRGPANGFRGGYDGYRPSFSNTPNSGYSQSQFTAPRDYSGYQRDGYQQNFKRGSGQSGPRGAPRGRGGPPRPNRGMPQMNTQQVN"}}, "target": "HA tagged 1-230 ATG16L1 truncation mutant (UniProt Q8C0J2)", "experiment": "affinity purification with mass spectrometry; lysate of BV2 cells stably expressing HA-ATG16L1 1-230, mock treated or infected with 10 MOI of MNV for 10 h, pulled down on HA beads; partners identified by mass spectrometry", "note": "These are yes or no findings as the source states them, for the method shown. Binding seen in cells or lysates may run through a third protein. Here binding means that the protein was enriched with, or labelled near, the bait; the list need not be complete.", "data": [{"molecule": "DHX9 (endogenous, BV2 cells) (from UniProt O70133 1-1380)", "values": [{"measurement": "binding", "result": "binds"}]}, {"molecule": "B1", "values": [{"measurement": "binding", "result": "binds"}]}]}
